Results taken from PubChem BioAssay AID504834 (National Center for Advancing Translational Sciences (NCATS), 2011).
“And” between values parts separate entries of the source, which are not always exact repeats. Equal values may be shown once. Hit rate of the full screen: of about 320,000 compounds, about 22,000 (6.9%) were called active. This list was built around the results that the source calls inconclusive (neither active nor inactive); the mix of calls is not that of the screen. Calls follow the shape of the dose curve; as a rule, active = well fitted inhibition curve with a large enough effect; inconclusive = small, poorly fitted or top-dose-only effect, or another doubt; inactive = no such curve, though single readings can be large or run the other way. Where the call is inconclusive, the potency comes from a doubtful curve fit. More than one record can exist for a structure, and the calls need not agree.

Assay: Primary qHTS for delayed death inhibitors of the malarial parasite plastid, 96 hour incubation
Details: P. falciparum luciferase reporter growth; series mostly up to 28.7 µM
Outline: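 Two parasite generations (96 h, 37 C, 5% CO2) of compound exposure in infected erythrocytes (0.05% parasitemia, 2% hematocrit). Luciferase-reporter P. falciparum; decreased luminescence indicates inhibited growth, aimed at apicoplast-acting delayed death.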
Potency is read from the fitted curve at half-maximal effect.

Question: For `CCN(CC)c1ccc(S(=O)(=O)N2CCOCC2)cc1NC(=O)COC(=O)COc1ccccc1C`, which Potency is on record?
Answer: inconclusive: 18.5 µM [inhibitor, single point]

Question: For `Cc1cc(C(=O)CCC(=O)N2CCN(c3ccccc3O)CC2)c(C)s1`, which Potency is on record?
Answer: inactive

Question: Which Potency does the source give for `COc1ccc(NC2CCCN(C(=O)c3ccc(C)nc3)C2)cc1` (centres undefined) here?
Answer: inconclusive: 10.4 µM [inhibitor, single point]

Question: With `COc1ccc(CNC(=O)C(OC(=O)c2ccco2)c2ccc(OC)cc2)cc1` (centres undefined) as the compound, how does the Potency read?
Answer: inactive

Question: For `CC(C)c1nnc(SCC(=O)NC2CCCCC2)n1C`, which Potency is on record?
Answer: inconclusive: 0.37 µM [inhibitor, partial curve, poor fit]

Question: With `COc1ccc(C2=CC(=O)C[C@H](c3ccc(Cl)cc3)C2)cc1` as the compound, how does the Potency read?
Answer: inconclusive: 14.7 µM [inhibitor, partial curve, poor fit]

Question: Which Potency does the source give for `O=C(c1ccc(=O)[nH]c1)N(Cc1cccs1)C1(C(=O)NC2CCCC2)CCCCC1` here?
Answer: inconclusive: 18.5 µM [inhibitor, single point]

Question: Which Potency does the source give for `CCC(C)NC(=O)c1cn(CCOC)c(=O)c2c1c1ccccc1n2C` (centres undefined) here?
Answer: inconclusive: 18.5 µM [inhibitor, single point]

Question: For `CC(NCc1cccc(Cl)c1Cl)C(O)c1ccccc1` (centres undefined), which Potency is on record?
Answer: active: 4.65 µM

Question: For `COCCNC(=O)CSc1nc2cc(OC)c(OC)cc2c(=O)n1Cc1ccc(OC)cc1`, which Potency is on record?
Answer: inconclusive: 18.5 µM [inhibitor, single point]

Question: For `COc1ccc(CCNC(=S)NC(=O)c2cccc(Cl)c2)cc1OC`, which Potency is on record?
Answer: inconclusive: 18.5 µM [inhibitor, partial curve, poor fit]

Question: For `CC1CN(CCCCOc2ccc(Cl)c3ccccc23)CC(C)O1` (centres undefined), which Potency is on record?
Answer: inactive

Question: For `Cc1noc(/C=C/c2ccco2)c1S(=O)(=O)N1CCC(C(=O)NC(C)c2ccccc2)CC1` (centres undefined), which Potency is on record?
Answer: inconclusive: 20.8 µM [inhibitor, single point]

Question: Which Potency does the source give for `O=C(CSc1nc2ccccc2c(=O)n1Cc1ccco1)Nc1cccc(O)c1` here?
Answer: active: 13.1 µM

Question: For `COc1ccc(N2CCN(C(=O)CSc3nnc4ncccn34)CC2)cc1`, which Potency is on record?
Answer: inconclusive: 7.38 µM [inhibitor, partial curve, poor fit]

Question: For `Fc1c(F)c(F)c(/C=N/NC(=S)Nc2cccnc2)c(F)c1F`, which Potency is on record?
Answer: inconclusive: 5.22 µM [inhibitor, single point]

Question: Which Potency does the source give for `O=C(c1ccco1)n1nc(-c2cccnc2)nc1NCc1ccco1` here?
Answer: inactive

Question: For `Cc1cccc2cc(CN(Cc3ccco3)C(=O)Nc3cccc(C#N)c3)c(Cl)nc12`, which Potency is on record?
Answer: active: 13.1 µM

Question: With `O=C(NCC1CCCO1)c1ccc2c3n(nc2c1)-c1ccccc1CO3` (centres undefined) as the compound, how does the Potency read?
Answer: inactive

Question: For `CSc1ccc(S(=O)(=O)NC2CC3CCC2C3)cc1` (centres undefined), which Potency is on record?
Answer: inconclusive: 18.5 µM [inhibitor, single point]

Question: With `O=C(N/N=C/c1ccc(O)cc1)/C(=C/c1ccccc1)CCO` as the compound, how does the Potency read?
Answer: inconclusive: 18.5 µM [inhibitor, single point]

Question: For `Cc1ccc(C(=O)c2cn(Cc3ccc(Cl)cc3)c3nc(C)ccc3c2=O)cc1`, which Potency is on record?
Answer: active: 11.7 µM

Question: With `Cc1ccc(CSc2nc3ccccc3c(=O)n2Cc2ccco2)cc1` as the compound, how does the Potency read?
Answer: active: 9.28 µM

Question: For `O=C1CCCc2c1nc(-c1ccco1)n2O`, which Potency is on record?
Answer: inconclusive: 0.0828 µM [inhibitor, full curve, poor fit]

Question: For `Cc1ccc(C2CC(=O)NC(SCCC(C)C)=C2C#N)cc1` (centres undefined), which Potency is on record?
Answer: inconclusive: 0.0029 µM [inhibitor, full curve, poor fit]

Question: With `CCN(CC)S(=O)(=O)c1ccc(NC(=O)c2ccc(Sc3nncn3C)c([N+](=O)[O-])c2)cc1` as the compound, how does the Potency read?
Answer: inconclusive: 9.28 µM [inhibitor, partial curve, poor fit]

Question: For `Cc1ccc(C)c(N(CC(=O)NC2CCCC2)C(=O)CCC(=O)Nc2nccs2)c1`, which Potency is on record?
Answer: inconclusive: 0.0828 µM [inhibitor, full curve, poor fit]

Question: For `O=C1CC(C(=O)O)c2ccccc2N1` (centres undefined), which Potency is on record?
Answer: inactive

Question: Which Potency does the source give for `CN(Cc1ccccc1Cl)C(=O)C1CCC(=O)N(C2CCCCCC2)C1` (centres undefined) here?
Answer: inactive

Question: Which Potency does the source give for `COc1cccc(NC(=S)NCc2ccc(F)cc2)c1` here?
Answer: inconclusive: 9.28 µM [inhibitor, single point]

Question: Which Potency does the source give for `O=[N+]([O-])c1cccc(N(CC(O)CN2CCCCC2)S(=O)(=O)c2ccccc2)c1` (centres undefined) here?
Answer: inconclusive: 11.7 µM [inhibitor, single point]

Question: Which Potency does the source give for `Cc1cc(C)cc(-n2c(C)cc(/C=N\NC(=O)COc3cccc4cccnc34)c2C)c1` here?
Answer: inconclusive: 5.86 µM [inhibitor, partial curve, poor fit]

Question: Which Potency does the source give for `O=c1[nH]n(-c2ccc(F)cc2)c2ncccc12` here?
Answer: inactive

Question: With `COC(=O)Nc1cc(C)nc2ccccc12` as the compound, how does the Potency read?
Answer: inconclusive: 4.15 µM [inhibitor, single point]

Question: With `Cc1cc(C)nc(NC(=NCCc2c[nH]c3ccccc23)NC(=O)Nc2ccc(Cl)cc2)n1` as the compound, how does the Potency read?
Answer: active: 0.586 µM

Question: With `Cc1ccc(S(=O)(=O)NCCC(=O)OCn2nnc3ccccc3c2=O)cc1` as the compound, how does the Potency read?
Answer: inconclusive: 10.4 µM [inhibitor, single point]

Question: For `CCOC(=O)C1=C(C)NC(=O)NC1c1ccsc1` (centres undefined), which Potency is on record?
Answer: inconclusive: 16.5 µM [inhibitor, single point]

Question: For `O=C(Nc1ccccc1)c1cccc(C(=O)Nc2ccccc2)n1`, which Potency is on record?
Answer: inconclusive: 0.104 µM [inhibitor, partial curve, poor fit]

Question: Which Potency does the source give for `Cc1nc(N2CCN(c3ccccc3)CC2)[nH]c(=O)c1Cc1ccccc1` here?
Answer: inconclusive: 13.1 µM [inhibitor, single point]

Question: With `COc1ccc(-c2csc(-c3[nH]cnc3N)n2)cc1` as the compound, how does the Potency read?
Answer: inconclusive: 1.85 µM [inhibitor, full curve, poor fit]

Question: Which Potency does the source give for `O=C(NC1CCN(C(=O)N2c3ccccc3Sc3ccccc32)CC1)c1ccco1` here?
Answer: inconclusive: 11.7 µM [inhibitor, single point]

Question: Which Potency does the source give for `CN(C)c1ccc(/C=C/c2c([N+](=O)[O-])c(=O)n(C)c(=O)n2C)cc1` here?
Answer: inactive

Question: For `O=C1NC(c2ccc(Br)cc2)=N/C1=C/c1ccco1`, which Potency is on record?
Answer: inconclusive: 18.5 µM [inhibitor, single point]

Question: With `Cn1c(=O)n(CC(=O)NCC2CCCO2)c(=O)c2c3c(sc21)COC(C)(C)C3` (centres undefined) as the compound, how does the Potency read?
Answer: inactive

Question: For `Cn1cc(C(=O)NC2CCCCC2)c(=O)c2cc(S(=O)(=O)N3CCOCC3)ccc21`, which Potency is on record?
Answer: inconclusive: 11.7 µM [inhibitor, single point]

Question: For `Cc1ccc(NC(=O)c2ccccn2)cc1S(=O)(=O)N1CCOCC1`, which Potency is on record?
Answer: inconclusive: 18.5 µM [inhibitor, single point]

Question: Which Potency does the source give for `Cc1ccc(OCC2Cn3c(nc4c3c(=O)[nH]c(=O)n4C)O2)cc1C` (centres undefined) here?
Answer: inactive

Question: Which Potency does the source give for `CC1CCc2c(sc3nc(CN4CCN(S(=O)(=O)c5ccccc5[N+](=O)[O-])CC4)[nH]c(=O)c23)C1` (centres undefined) here?
Answer: inconclusive: 18.5 µM [inhibitor, single point]

Question: For `O=C1CCC(C(=O)N2CCOCC2)CN1Cc1cccc(C(F)(F)F)c1` (centres undefined), which Potency is on record?
Answer: inconclusive: 18.5 µM [inhibitor, single point]

Question: Which Potency does the source give for `Cc1ccc(CNC(=O)CCC2CCCN(Cc3c(C)nn(C(C)C)c3C)C2)o1` (centres undefined) here?
Answer: active: 8.28 µM

Question: Which Potency does the source give for `CC1CC(C)CN(C(=O)c2ccc(S(=O)(=O)N3CCCC3)cc2)C1` (centres undefined) here?
Answer: inactive

Question: Which Potency does the source give for `COc1ccc(Cn2c(O)c(C=Nc3ccccc3C(=O)O)c3ccccc3c2=O)cc1` here?
Answer: inconclusive: 6.57 µM [inhibitor, partial curve, poor fit]

Question: For `O=C1NCN(c2ccccc2)C12CCN(CCCC(c1ccc(F)cc1)c1ccc(F)cc1)CC2`, which Potency is on record?
Answer: active: 3.7 µM

Question: For `CC(OC(=O)c1ccc(F)c(S(=O)(=O)N2CCOCC2)c1)C(=O)NCC1CCCCC1` (centres undefined), which Potency is on record?
Answer: inconclusive: 18.5 µM [inhibitor, single point]

Question: Which Potency does the source give for `CCOc1ccc(NC(=S)N(CCN2CCOCC2)Cc2ccc3c(c2)CCCN3CC)cc1` here?
Answer: inconclusive: 0.294 µM [inhibitor, full curve]

Question: With `CCCSc1nnc(CNC(=O)C23CC4CC(CC(C4)C2)C3)n1Cc1ccccc1` as the compound, how does the Potency read?
Answer: inconclusive: 3.29 µM [inhibitor, partial curve]

Question: For `Cc1nc2ccccc2nc(=O)c1NNc1ccccc1`, which Potency is on record?
Answer: inactive and active: 6.75 µM

Question: Which Potency does the source give for `Oc1ccc2ccccc2c1N=Nc1ccccn1` here?
Answer: active: 6.57 µM

Question: For `Cc1c(C(=O)N(C)C(C)c2ccccn2)oc2c(F)cccc12` (centres undefined), which Potency is on record?
Answer: inactive

Question: Which Potency does the source give for `N#C/C(=C\c1ccc(O)c([N+](=O)[O-])c1)C(=O)NCc1ccccc1` here?
Answer: inactive

Question: For `S=C1NC(c2ccccc2)=NCN1c1ccc(Br)cc1`, which Potency is on record?
Answer: inconclusive: 10.4 µM [inhibitor, single point]

Question: For `O=C(NCc1ccc2c(c1)OCO2)C1CCC(CNc2c(N3CCCCC3)c(=O)c2=O)CC1` (centres undefined), which Potency is on record?
Answer: inconclusive: 18.5 µM [inhibitor, single point]

Question: Which Potency does the source give for `CCOC(=O)Cc1cc(-c2ccc(F)cc2)nc2ccc3ccccc3c12` here?
Answer: inconclusive: 18.5 µM [inhibitor, single point]

Question: Which Potency does the source give for `Oc1ccc(-c2csc(-c3c[nH]c4ccccc34)n2)c(O)c1` here?
Answer: inactive

Question: With `O=C(Oc1cccc(OC(=O)N2CCCCC2)c1)N1CCCCC1` as the compound, how does the Potency read?
Answer: inconclusive: 20.8 µM [inhibitor, single point]

Question: With `CCOC(=O)N1CCN(CCC(=O)Nc2cc(OC)cc(OC)c2)CC1` as the compound, how does the Potency read?
Answer: inconclusive: 13.1 µM [inhibitor, partial curve, poor fit]

Question: For `CC1=C(C(N)=O)C(c2ccccn2)n2nc(-c3ccccc3Cl)nc2N1` (centres undefined), which Potency is on record?
Answer: active: 10.4 µM

Question: For `Cc1ccc(Cl)c(OCCN2CCc3ccccc3C2)c1`, which Potency is on record?
Answer: inconclusive: 4.15 µM [inhibitor, single point]

Question: With `CCOc1ccc(-c2cc(C)n3nc(C(N)=O)cc3n2)cc1` as the compound, how does the Potency read?
Answer: inconclusive: 18.5 µM [inhibitor, single point]
